In the supplement of paper PMC10849652:
This is one part of the list.

Protein sequences, listed by entry. Tags and fused reporters are not part of them. Lines headed by an entry give the natural chain unless they say otherwise; changes in a name come on top.
UniProt Q9H5J4: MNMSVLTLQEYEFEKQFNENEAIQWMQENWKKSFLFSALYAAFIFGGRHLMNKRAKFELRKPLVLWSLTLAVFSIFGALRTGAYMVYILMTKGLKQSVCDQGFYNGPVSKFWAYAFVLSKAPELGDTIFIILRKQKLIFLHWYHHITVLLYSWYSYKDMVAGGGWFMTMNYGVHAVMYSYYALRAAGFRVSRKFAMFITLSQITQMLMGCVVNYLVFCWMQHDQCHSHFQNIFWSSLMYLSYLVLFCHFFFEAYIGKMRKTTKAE
UniProt O75071: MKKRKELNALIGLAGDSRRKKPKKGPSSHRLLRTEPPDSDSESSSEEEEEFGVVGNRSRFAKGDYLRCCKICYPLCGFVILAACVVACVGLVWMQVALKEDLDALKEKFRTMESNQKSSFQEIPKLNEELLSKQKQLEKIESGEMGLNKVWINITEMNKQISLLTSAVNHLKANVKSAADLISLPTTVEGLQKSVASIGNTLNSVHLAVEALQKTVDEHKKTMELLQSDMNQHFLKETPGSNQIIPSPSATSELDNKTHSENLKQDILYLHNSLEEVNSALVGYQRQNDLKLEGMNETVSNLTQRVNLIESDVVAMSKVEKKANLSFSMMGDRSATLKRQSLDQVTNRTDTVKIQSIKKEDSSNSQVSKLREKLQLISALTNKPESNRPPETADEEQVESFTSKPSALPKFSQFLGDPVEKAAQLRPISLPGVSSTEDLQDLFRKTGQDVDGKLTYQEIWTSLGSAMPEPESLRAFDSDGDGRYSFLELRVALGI
UniProt Q5UCC4: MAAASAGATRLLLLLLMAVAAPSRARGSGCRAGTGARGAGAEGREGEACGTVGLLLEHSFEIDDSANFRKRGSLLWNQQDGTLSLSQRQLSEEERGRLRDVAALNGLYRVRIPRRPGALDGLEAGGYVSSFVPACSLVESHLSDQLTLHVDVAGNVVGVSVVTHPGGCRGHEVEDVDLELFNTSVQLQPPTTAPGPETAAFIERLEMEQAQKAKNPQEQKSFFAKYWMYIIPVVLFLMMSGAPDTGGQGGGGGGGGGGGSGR
UniProt P18146, whole entry, looked up: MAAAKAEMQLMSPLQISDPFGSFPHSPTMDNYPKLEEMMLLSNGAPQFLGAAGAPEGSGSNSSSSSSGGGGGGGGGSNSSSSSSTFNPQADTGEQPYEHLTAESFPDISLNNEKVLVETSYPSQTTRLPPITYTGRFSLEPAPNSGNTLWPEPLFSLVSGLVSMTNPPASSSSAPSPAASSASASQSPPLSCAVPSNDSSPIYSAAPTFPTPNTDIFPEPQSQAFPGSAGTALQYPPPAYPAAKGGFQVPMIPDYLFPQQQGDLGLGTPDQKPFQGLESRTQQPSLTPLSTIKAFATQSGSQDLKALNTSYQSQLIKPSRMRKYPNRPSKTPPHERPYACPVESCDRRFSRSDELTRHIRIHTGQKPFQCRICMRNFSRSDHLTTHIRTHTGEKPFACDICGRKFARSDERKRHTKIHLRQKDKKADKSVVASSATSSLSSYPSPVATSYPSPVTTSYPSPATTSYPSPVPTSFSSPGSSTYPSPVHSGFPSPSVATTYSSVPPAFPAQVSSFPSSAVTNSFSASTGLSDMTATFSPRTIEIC
UniProt O60573: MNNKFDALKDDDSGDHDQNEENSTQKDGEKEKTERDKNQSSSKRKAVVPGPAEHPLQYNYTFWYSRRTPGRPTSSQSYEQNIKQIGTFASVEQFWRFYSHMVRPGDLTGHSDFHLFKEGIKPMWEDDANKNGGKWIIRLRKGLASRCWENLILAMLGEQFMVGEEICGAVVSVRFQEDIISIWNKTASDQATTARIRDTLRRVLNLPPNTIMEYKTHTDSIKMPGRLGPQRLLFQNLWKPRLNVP
UniProt Q92556, whole entry, looked up: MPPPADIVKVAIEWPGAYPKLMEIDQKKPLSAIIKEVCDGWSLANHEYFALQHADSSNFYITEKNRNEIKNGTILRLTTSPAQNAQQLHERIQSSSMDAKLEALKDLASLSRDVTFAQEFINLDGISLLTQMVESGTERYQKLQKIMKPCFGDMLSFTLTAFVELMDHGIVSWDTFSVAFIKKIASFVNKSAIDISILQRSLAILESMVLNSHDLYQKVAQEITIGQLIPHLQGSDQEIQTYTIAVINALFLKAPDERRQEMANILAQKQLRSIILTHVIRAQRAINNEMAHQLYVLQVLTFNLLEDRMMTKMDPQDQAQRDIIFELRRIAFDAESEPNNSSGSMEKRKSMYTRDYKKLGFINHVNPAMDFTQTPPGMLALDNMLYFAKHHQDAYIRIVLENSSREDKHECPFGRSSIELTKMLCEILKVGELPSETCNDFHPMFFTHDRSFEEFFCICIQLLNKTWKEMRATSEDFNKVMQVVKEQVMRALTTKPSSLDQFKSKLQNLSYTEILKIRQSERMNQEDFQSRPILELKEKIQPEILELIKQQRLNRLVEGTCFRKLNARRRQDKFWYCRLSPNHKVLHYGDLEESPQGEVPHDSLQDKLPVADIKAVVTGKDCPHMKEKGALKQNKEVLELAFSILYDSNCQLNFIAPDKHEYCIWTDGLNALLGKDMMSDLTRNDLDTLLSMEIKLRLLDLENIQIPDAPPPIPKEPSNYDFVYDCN
UniProt Q9NRA8: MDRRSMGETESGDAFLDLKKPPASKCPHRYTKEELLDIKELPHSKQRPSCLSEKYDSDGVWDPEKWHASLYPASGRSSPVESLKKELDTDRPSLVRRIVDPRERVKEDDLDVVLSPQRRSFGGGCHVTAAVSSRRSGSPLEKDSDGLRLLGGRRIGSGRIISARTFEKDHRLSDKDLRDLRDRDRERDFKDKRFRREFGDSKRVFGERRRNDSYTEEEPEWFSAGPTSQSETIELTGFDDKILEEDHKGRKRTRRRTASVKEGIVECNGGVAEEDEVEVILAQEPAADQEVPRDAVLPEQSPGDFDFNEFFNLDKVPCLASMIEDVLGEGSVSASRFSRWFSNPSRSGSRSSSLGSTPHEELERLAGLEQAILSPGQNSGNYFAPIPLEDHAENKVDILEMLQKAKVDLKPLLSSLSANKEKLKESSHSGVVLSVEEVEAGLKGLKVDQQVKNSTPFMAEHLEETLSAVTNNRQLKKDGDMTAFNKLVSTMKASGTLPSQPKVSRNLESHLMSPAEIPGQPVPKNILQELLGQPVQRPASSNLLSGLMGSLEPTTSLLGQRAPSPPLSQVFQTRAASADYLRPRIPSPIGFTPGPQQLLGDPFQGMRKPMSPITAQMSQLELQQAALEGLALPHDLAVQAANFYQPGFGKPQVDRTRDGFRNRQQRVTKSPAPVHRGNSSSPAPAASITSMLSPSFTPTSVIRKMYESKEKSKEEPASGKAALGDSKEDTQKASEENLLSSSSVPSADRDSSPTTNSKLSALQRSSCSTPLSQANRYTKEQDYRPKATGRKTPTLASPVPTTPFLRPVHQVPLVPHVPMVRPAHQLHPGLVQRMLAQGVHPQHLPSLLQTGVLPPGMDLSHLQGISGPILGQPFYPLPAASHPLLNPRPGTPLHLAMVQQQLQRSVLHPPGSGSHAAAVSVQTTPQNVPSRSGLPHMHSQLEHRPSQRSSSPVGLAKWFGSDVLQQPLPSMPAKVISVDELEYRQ
UniProt P60228, whole entry, looked up: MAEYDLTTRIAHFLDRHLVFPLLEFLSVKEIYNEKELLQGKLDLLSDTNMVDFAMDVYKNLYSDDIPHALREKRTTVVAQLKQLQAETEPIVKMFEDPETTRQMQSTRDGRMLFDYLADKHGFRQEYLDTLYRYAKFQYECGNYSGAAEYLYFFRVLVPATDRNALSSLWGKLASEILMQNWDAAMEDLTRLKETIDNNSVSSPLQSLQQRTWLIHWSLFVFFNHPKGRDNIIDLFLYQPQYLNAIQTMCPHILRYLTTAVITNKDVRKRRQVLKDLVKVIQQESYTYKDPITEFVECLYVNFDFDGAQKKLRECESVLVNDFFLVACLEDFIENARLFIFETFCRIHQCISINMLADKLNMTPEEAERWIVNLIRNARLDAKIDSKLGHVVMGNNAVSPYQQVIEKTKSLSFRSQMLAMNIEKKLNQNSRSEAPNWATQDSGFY
UniProt O43432, whole entry, looked up: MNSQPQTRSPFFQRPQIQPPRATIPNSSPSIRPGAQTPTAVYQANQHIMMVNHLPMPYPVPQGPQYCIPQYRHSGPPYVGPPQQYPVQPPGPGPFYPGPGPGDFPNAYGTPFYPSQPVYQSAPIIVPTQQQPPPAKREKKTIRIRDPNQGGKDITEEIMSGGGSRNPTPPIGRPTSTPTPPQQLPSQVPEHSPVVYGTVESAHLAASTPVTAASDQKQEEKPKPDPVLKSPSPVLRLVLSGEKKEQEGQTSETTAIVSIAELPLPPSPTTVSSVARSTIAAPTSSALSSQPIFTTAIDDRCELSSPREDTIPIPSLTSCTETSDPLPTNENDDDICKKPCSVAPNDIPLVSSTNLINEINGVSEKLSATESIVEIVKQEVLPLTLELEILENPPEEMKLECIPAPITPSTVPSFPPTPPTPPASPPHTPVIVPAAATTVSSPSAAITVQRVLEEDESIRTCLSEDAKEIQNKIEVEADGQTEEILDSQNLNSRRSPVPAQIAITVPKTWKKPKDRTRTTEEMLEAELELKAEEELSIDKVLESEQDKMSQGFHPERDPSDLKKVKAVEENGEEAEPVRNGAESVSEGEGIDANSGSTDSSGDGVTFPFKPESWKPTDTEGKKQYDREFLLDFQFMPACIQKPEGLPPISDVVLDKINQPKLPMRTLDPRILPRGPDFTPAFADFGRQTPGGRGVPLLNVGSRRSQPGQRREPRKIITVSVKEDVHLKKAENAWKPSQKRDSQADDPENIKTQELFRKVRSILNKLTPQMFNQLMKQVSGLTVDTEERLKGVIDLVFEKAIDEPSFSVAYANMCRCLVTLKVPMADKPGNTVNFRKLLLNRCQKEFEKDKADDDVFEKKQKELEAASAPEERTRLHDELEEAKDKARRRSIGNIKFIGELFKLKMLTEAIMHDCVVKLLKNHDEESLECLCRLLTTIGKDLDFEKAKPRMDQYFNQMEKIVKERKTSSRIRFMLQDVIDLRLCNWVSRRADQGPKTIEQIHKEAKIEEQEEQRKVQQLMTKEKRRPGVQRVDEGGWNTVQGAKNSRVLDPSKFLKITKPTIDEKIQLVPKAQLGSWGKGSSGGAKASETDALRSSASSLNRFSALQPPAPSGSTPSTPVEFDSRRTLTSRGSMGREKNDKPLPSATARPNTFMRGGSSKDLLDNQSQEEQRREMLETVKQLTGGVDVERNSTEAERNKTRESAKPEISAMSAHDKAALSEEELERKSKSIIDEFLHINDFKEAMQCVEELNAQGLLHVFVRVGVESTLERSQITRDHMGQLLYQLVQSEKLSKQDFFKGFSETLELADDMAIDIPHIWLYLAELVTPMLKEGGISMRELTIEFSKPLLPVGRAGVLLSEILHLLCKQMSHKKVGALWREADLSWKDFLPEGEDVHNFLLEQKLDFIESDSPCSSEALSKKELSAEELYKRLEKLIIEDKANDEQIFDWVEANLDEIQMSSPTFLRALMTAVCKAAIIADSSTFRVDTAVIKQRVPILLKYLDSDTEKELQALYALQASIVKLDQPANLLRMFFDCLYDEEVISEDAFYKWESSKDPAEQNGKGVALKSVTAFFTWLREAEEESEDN
UniProt P05198, whole entry, looked up: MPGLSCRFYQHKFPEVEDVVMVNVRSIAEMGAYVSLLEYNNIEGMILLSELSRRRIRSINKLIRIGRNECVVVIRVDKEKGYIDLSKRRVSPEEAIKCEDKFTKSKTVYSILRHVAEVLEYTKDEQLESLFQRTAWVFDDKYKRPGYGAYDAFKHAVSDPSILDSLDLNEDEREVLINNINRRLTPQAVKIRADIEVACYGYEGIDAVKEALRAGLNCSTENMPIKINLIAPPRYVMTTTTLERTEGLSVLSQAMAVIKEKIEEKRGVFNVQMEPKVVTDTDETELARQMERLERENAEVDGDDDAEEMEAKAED
UniProt Q13144, whole entry, looked up: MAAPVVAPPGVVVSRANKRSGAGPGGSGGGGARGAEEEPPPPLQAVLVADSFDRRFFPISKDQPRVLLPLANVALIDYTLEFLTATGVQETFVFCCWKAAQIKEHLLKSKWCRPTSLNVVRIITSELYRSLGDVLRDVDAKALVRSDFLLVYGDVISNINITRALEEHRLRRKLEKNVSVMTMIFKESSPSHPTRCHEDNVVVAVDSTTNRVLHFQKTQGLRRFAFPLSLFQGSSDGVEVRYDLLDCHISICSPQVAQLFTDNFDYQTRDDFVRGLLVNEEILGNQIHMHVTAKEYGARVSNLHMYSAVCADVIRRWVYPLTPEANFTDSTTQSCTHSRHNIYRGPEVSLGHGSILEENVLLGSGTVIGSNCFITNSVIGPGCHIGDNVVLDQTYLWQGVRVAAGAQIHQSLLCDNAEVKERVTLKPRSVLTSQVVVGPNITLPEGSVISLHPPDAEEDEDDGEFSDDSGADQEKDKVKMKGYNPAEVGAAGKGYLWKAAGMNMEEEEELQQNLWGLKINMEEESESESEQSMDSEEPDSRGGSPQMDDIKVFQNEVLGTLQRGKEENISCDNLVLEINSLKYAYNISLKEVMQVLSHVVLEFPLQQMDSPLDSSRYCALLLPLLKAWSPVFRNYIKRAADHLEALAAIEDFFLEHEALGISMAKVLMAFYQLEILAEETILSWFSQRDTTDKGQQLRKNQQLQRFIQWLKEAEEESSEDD

Legend:
Assay in all cases: log2 fold change, soluble protein after heating vs DMSO (PISA); higher = thermal stabilisation; K562 cells, 10 uM, 30 min; active = over 0.2 and 3.5 SD of the protein, either way, in both replicates (recomputed)
bafetinib = compound: Cc1ccc(NC(=O)c2ccc(CN3CC[C@H](N(C)C)C3)c(C(F)(F)F)c2)cc1Nc1nccc(-c2cncnc2)n1 [bafetinib]
How it was run: (§1)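 K562 cells at 2×10^6 cells/mL were exposed to 10 μM compound for 30 min, then aliquots were heated for 3 min across 48°C-58°C, pooled, and extracted in PBS containing 0.5% NP-40 at 4°C. The supernatant after 21,000xg for 90 min was taken as soluble protein and measured by TMTpro 16plex LC-MS/MS with channel sums equalised. Thermal stability is reported relative to control samples, with values from duplicates. Fold changes are given on a log2 scale.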

nilotinib = compound: Cc1cn(-c2cc(NC(=O)c3ccc(C)c(Nc4nccc(-c5cccnc5)n4)c3)cc(C(F)(F)F)c2)cn1 [nilotinib]
How it was run: as §1

[1] = compound: Cc1nc(Nc2n[nH]c3c2CN(C(=O)N[C@H](CN(C)C)c2ccccc2)C3(C)C)c2sccc2n1
How it was run: as §1

dasatinib = compound: Cc1nc(Nc2ncc(C(=O)Nc3c(C)cccc3Cl)s2)cc(N2CCN(CCO)CC2)n1 [dasatinib]
How it was run: as §1

[2] = compound: Cc1ncc(-c2ccnc(Nc3ccc(S(C)(=O)=O)cc3)n2)n1C(C)C
How it was run: as §1

[3] = compound: Cn1cc(-c2ccc3c(c2)CCN3C(=O)Cc2cccc(C(F)(F)F)c2)c2c(N)ncnc21
How it was run: as §1

[4] = compound: Cn1cc(-c2ccc3nnc(C(F)(F)c4ccc5ncccc5c4)n3n2)cn1
How it was run: as §1

tipifarnib = compound: Cn1cncc1[C@@](N)(c1ccc(Cl)cc1)c1ccc2c(c1)c(-c1cccc(Cl)c1)cc(=O)n2C [tipifarnib]
How it was run: as §1

mubritinib = compound: FC(F)(F)c1ccc(/C=C/c2nc(COc3ccc(CCCCn4ccnn4)cc3)co2)cc1 [mubritinib]
How it was run: as §1

[5] = compound: Cc1cccc(CC(=O)N2CCc3c2ccc(-c2cn(C)c4ncnc(N)c24)c3F)n1
How it was run: as §1

Measured: log2 fold change

ELOVL6 (UniProt Q9H5J4)
inactive: bafetinib -0.208 | nilotinib 0.04 | [1] -0.033 | dasatinib 0.089 | [2] -0.041 | [3] 0.049 | [4] 0.036 | tipifarnib -0.125 | mubritinib 0.103

EFCAB14 (UniProt O75071)
inactive: bafetinib -0.008 | [5] -0.056 | nilotinib 0.084 | [1] 0.011 | dasatinib 0.075 | [2] 0.003 | [3] -0.123 | [4] -0.048 | tipifarnib -0.062 | mubritinib 0.081

EIF4B (UniProt F8VP89)
inactive: bafetinib 0.028 | [5] -0.353 | nilotinib 0.024 | [1] -0.122 | [2] -0.138 | [3] 0.166 | [4] -0.125 | tipifarnib 0.172 | mubritinib -0.018

EHBP1L1 (UniProt Q8N3D4)
inactive: bafetinib 0.194 | [5] -0.006 | nilotinib -0.081 | [1] -0.218 | dasatinib -0.123 | [2] 0.256 | [3] 0.005 | [4] 0.006 | tipifarnib -0.039 | mubritinib 0.007

EMC10 (UniProt Q5UCC4)
inactive: bafetinib -0.035 | [5] 0.019 | nilotinib 0.025 | [1] -0.018 | dasatinib -0.047 | [2] -0.031 | [3] 0.064 | [4] 0.144 | tipifarnib -0.07 | mubritinib 0.05

EGR1 (UniProt P18146)
inactive: bafetinib -0.257 | [5] 0.141 | nilotinib -0.001 | [1] -0.352 | [2] -0.295 | [3] -0.24 | [4] -0.106 | tipifarnib 0.139 | mubritinib -0.121

EIF4E2 (UniProt O60573)
inactive: bafetinib -0.055 | nilotinib -0.094 | [1] -0.052 | dasatinib -0.232 | [2] -0.004 | [3] 0.082 | [4] -0.059 | tipifarnib -0.127 | mubritinib 0.035

ELMO1 (UniProt Q92556)
inactive: bafetinib 0.033 | nilotinib -0.038 | [1] 0.026 | dasatinib 0.03 | [2] -0.001 | [4] 0.06 | mubritinib -0.087

EIF4ENIF1 isoform 3 (UniProt Q9NRA8)
inactive: bafetinib -0.089 | [5] -0.21 | dasatinib -0.226 | [3] 0.026 | [4] -0.044 | tipifarnib -0.033 | mubritinib 0

EIF3E (UniProt P60228)
inactive: bafetinib 0.136 | [5] 0.075 | nilotinib -0.123 | [1] -0.123 | dasatinib -0.119 | [2] 0.049 | [3] -0.048 | [4] -0.054 | tipifarnib -0.126 | mubritinib -0.029

EIF2B4 (UniProt Q9UI10)
inactive: bafetinib 0.183 | [5] 0.083 | dasatinib 0.194 | [3] -0.05 | tipifarnib 0.007 | mubritinib 0.175

EIF4G3 isoform 3 (UniProt O43432)
inactive: bafetinib -0.01 | nilotinib -0.043 | [1] -0.12 | dasatinib -0.006 | [2] 0.052 | [3] -0.073 | [4] 0.056 | tipifarnib 0.083 | mubritinib -0.005

EIF2S1 (UniProt P05198)
inactive: bafetinib 0.08 | [5] -0.021 | nilotinib -0.074 | [1] 0.056 | dasatinib 0.028 | [2] 0.009 | [3] -0.047 | [4] -0.044 | tipifarnib 0.05 | mubritinib -0.026

EIF3G (UniProt K7ER90)
inactive: bafetinib -0.007 | nilotinib 0.082 | [1] -0.166 | dasatinib -0.068 | [2] 0.141 | [3] -0.057 | mubritinib -0.13

Reprinted at random: 2 entries already listed.
EIF4B (UniProt F8VP89)
inactive: bafetinib 0.028 | [5] -0.353 | nilotinib 0.024 | [1] -0.122 | [2] -0.138 | [3] 0.166 | [4] -0.125 | tipifarnib 0.172 | mubritinib -0.018

EIF4ENIF1 isoform 3 (UniProt Q9NRA8)
inactive: bafetinib -0.089 | [5] -0.21 | dasatinib -0.226 | [3] 0.026 | [4] -0.044 | tipifarnib -0.033 | mubritinib 0

Continued.

EIF6 (UniProt P56537)
inactive: bafetinib -0.058 | [5] -0.053 | nilotinib -0.077 | [1] 0.035 | dasatinib 0.038 | [2] -0.05 | [3] -0.072 | [4] 0.025 | tipifarnib 0.061 | mubritinib 0.026

EIF2B5 (UniProt Q13144)
inactive: bafetinib 0.043 | [5] -0.01 | nilotinib -0.022 | [1] -0.064 | dasatinib -0.001 | [2] 0.005 | [3] -0.144 | [4] 0.014 | tipifarnib -0.046 | mubritinib -0.004
